# Counter-ions that a name gives are not always drawn. The list shows a part of the results. This data set is noisy: repeats of one test often differ as much as different tests do.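 Cells: ReNCell VM human fetal ventral-midbrain neural progenitors, differentiated mitogen-free. Blinded raters compared doublecortin-stained (early neurons) or tyrosine hydroxylase-stained (dopaminergic neurons) images with untreated wells, where 0 means no change. After repeats and both raters were averaged, compounds scoring 2 or above became hits for retesting.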
# Tests used:
# ReNCell VM [1] = test: neuronal differentiation score (DCX+ cell fraction vs untreated, manual image score) (score (-3 to 3)); higher = more neuronal differentiation; conditions: 2 uM, 2 weeks
# ReNCell VM [2] = test: dopaminergic neuron differentiation score (TH+ cell fraction vs untreated, manual image score) (score (0 to 3)); higher = more TH+ dopaminergic neuron differentiation; conditions: 2 uM, 4 weeks, BDNF 10 ng/ml + GDNF 10 ng/ml
compound,measurement,setting,value
C=CCOc1ccccc1OCC(O)CNC(C)C (stereo not drawn) [Oxprenolol hydrochloride],neuronal differentiation score,ReNCell VM [1]; library: Prestwick,inactive: 0
same,dopaminergic neuron differentiation score,ReNCell VM [2]; library: Prestwick,inactive: 0
C=C[C@@]1(C)CC(=O)[C@]2(O)[C@@]3(C)[C@@H](O)CCC(C)(C)[C@@H]3[C@H](O)[C@H](OC(C)=O)[C@@]2(C)O1,neuronal differentiation score,ReNCell VM [1]; library: Spectrum,inactive: 0
same,dopaminergic neuron differentiation score,ReNCell VM [2]; library: Spectrum,inactive: 0
CC(=O)N(c1onc(C)c1C)S(=O)(=O)c1ccc(N)cc1,neuronal differentiation score,ReNCell VM [1]; library: Spectrum,inactive: 1
same,dopaminergic neuron differentiation score,ReNCell VM [2]; library: Spectrum,inactive: 0
CC(C)NC[C@H](O)c1ccc(O)c(O)c1 [R(-)-Isoproterenol (+)-bitartrate],neuronal differentiation score,ReNCell VM [1]; library: LOPAC,inactive: 0
same,dopaminergic neuron differentiation score,ReNCell VM [2]; library: LOPAC,active: 3
COc1ccc(C=CC(=O)O)cc1OC,neuronal differentiation score,ReNCell VM [1]; library: Spectrum,inactive: 0
same,dopaminergic neuron differentiation score,ReNCell VM [2]; library: Spectrum,inactive: 0
CCCCCCCCCc1ccc(OCCOCCOCCOCCOCCOCCOCCOCCOCCO)cc1,neuronal differentiation score,ReNCell VM [1]; library: Spectrum,inactive: 0
same,dopaminergic neuron differentiation score,ReNCell VM [2]; library: Spectrum,inactive: 0
CC(C)=CCOc1cc2oc(=O)ccc2cc1O,neuronal differentiation score,ReNCell VM [1]; library: Spectrum,inactive: 0
same,dopaminergic neuron differentiation score,ReNCell VM [2]; library: Spectrum,inactive: 0
Cc1nc2ccccn2c(=O)c1CCN1CCC(C(=O)c2ccc(F)cc2)CC1,neuronal differentiation score,ReNCell VM [1]; library: Spectrum,inactive: 0
same,dopaminergic neuron differentiation score,ReNCell VM [2]; library: Spectrum,inactive: 0
c1ccc2cc(C3=NCCN3)ncc2c1 [BU 226 hydrochloride],neuronal differentiation score,ReNCell VM [1]; library: Tocriscreen,inactive: 0
same,dopaminergic neuron differentiation score,ReNCell VM [2]; library: Tocriscreen,inactive: 0
COc1ccc(-c2coc3c(OC)c(OC)cc(O)c3c2=O)cc1,neuronal differentiation score,ReNCell VM [1]; library: Spectrum,inactive: -3
same,dopaminergic neuron differentiation score,ReNCell VM [2]; library: Spectrum,inactive: 1
Cc1cccc(C)c1NC(=O)C[N+](C)(C)C [Lidocaine N-methyl hydrochloride],neuronal differentiation score,ReNCell VM [1]; library: LOPAC,inactive: 0
same,dopaminergic neuron differentiation score,ReNCell VM [2]; library: LOPAC,inactive: 0
NC(=O)NCCC[C@H](N)C(=O)O,neuronal differentiation score,ReNCell VM [1]; library: Spectrum,inactive: 0
same,dopaminergic neuron differentiation score,ReNCell VM [2]; library: Spectrum,inactive: 0
CC(C)=CCc1c2c(c3occ(-c4ccc(O)cc4)c(=O)c3c1O)C=CC(C)(C)O2,neuronal differentiation score,ReNCell VM [1]; library: Spectrum,inactive: 0
same,dopaminergic neuron differentiation score,ReNCell VM [2]; library: Spectrum,inactive: 0
C[N+](C)(C)CCCCCC[N+](C)(C)C [Hexamethonium bromide],neuronal differentiation score,ReNCell VM [1]; library: LOPAC,inactive: 0
same,dopaminergic neuron differentiation score,ReNCell VM [2]; library: LOPAC,inactive: 0
CCCCOc1ccc(CC(=O)NO)cc1,neuronal differentiation score,ReNCell VM [1]; library: Spectrum,inactive: 0
same,dopaminergic neuron differentiation score,ReNCell VM [2]; library: Spectrum,inactive: 0
"c1ccc(CNc2ncnc3nc[nH]c23)cc1 [Aminopurine, 6-benzyl]",neuronal differentiation score,ReNCell VM [1]; library: Prestwick,inactive: 0
same,dopaminergic neuron differentiation score,ReNCell VM [2]; library: Prestwick,inactive: 0
"Cc1c(O)c(=O)n(-c2ccccc2)n1C [Antipyrine, 4-hydroxy]",neuronal differentiation score,ReNCell VM [1]; library: Prestwick,inactive: 1
same,dopaminergic neuron differentiation score,ReNCell VM [2]; library: Prestwick,inactive: 0
CC1(C)S[C@@H]2[C@H](NC(=O)[C@H](NC(=O)N3CCNC3=O)c3ccccc3)C(=O)N2[C@H]1C(=O)O,neuronal differentiation score,ReNCell VM [1]; library: Spectrum,inactive: 0
same,dopaminergic neuron differentiation score,ReNCell VM [2]; library: Spectrum,inactive: 0
Nc1ccc(S(=O)(=O)c2ccc(N)cc2)cc1 [Dapsone],neuronal differentiation score,ReNCell VM [1]; library: Prestwick,inactive: 0
same,dopaminergic neuron differentiation score,ReNCell VM [2]; library: Prestwick,inactive: 0
CCn1cc(C(=O)O)c(=O)c2cc(F)c(N3CCNCC3)nc21 [Enoxacin],neuronal differentiation score,ReNCell VM [1]; library: Prestwick,inactive: 0
same,dopaminergic neuron differentiation score,ReNCell VM [2]; library: Prestwick,inactive: 0
CNC(=O)[C@H]1O[C@@H](n2cnc3c(N)ncnc32)[C@H](O)[C@@H]1O [5'-N-Methyl carboxamidoadenosine],neuronal differentiation score,ReNCell VM [1]; library: LOPAC,inactive: -2
same,dopaminergic neuron differentiation score,ReNCell VM [2]; library: LOPAC,inactive: 0
NC(=O)c1cc[n+](CC2=C(C(=O)[O-])N3C(=O)[C@@H](NC(=O)[C@@H](c4ccccc4)S(=O)(=O)O)[C@H]3SC2)cc1 [Cefsulodin sodium salt],neuronal differentiation score,ReNCell VM [1]; library: Prestwick,inactive: 0
same,dopaminergic neuron differentiation score,ReNCell VM [2]; library: Prestwick,inactive: 0
COc1ccc2cc3[n+](cc2c1OC)CCc1cc2c(cc1-3)OCO2,neuronal differentiation score,ReNCell VM [1]; library: Spectrum,inactive: 0
same,dopaminergic neuron differentiation score,ReNCell VM [2]; library: Spectrum,inactive: 0
O=S(=O)(O)CCCS(=O)(=O)O,neuronal differentiation score,ReNCell VM [1]; library: Spectrum,inactive: 0
same,dopaminergic neuron differentiation score,ReNCell VM [2]; library: Spectrum,inactive: 0
COc1ccc([C@@H]2Sc3ccccc3N(CCN(C)C)C(=O)[C@@H]2OC(C)=O)cc1,neuronal differentiation score,ReNCell VM [1]; library: Spectrum,inactive: 0
same,dopaminergic neuron differentiation score,ReNCell VM [2]; library: Spectrum,inactive: 0
CC[C@@]1(O)C(=O)OCc2c1cc1n(c2=O)Cc2cc3cc(O)ccc3nc2-1 [10-hydroxycamptothecin],neuronal differentiation score,ReNCell VM [1]; library: Natural,inactive: 0
same,dopaminergic neuron differentiation score,ReNCell VM [2]; library: Natural,inactive: 0
CN(CCCN1c2ccccc2CCc2ccccc21)CC(=O)c1ccc(Cl)cc1 [Lofepramine],neuronal differentiation score,ReNCell VM [1]; library: Tocriscreen,inactive: 0
same,dopaminergic neuron differentiation score,ReNCell VM [2]; library: Tocriscreen,inactive: 0
CC(C(=O)O)c1cccc(Oc2ccccc2)c1 (stereo not drawn),neuronal differentiation score,ReNCell VM [1]; library: Spectrum,inactive: 0
same,dopaminergic neuron differentiation score,ReNCell VM [2]; library: Spectrum,inactive: 0
O=C(/C=C/C=C/c1ccc2c(c1)OCO2)N1CCCCC1 [Piperine],neuronal differentiation score,ReNCell VM [1]; library: Phytochemical,inactive: 0
same,dopaminergic neuron differentiation score,ReNCell VM [2]; library: Phytochemical,inactive: 0
O=C(O)c1ccccc1Nc1cccc(C(F)(F)F)c1 [Flufenamic acid],neuronal differentiation score,ReNCell VM [1]; library: Prestwick,inactive: 0
same,dopaminergic neuron differentiation score,ReNCell VM [2]; library: Prestwick,inactive: 0
C=CC(=O)c1ccc2ccccc2c1,neuronal differentiation score,ReNCell VM [1]; library: Tocriscreen,inactive: 1
same,dopaminergic neuron differentiation score,ReNCell VM [2]; library: Tocriscreen,inactive: 0
O=C(O)[C@@H]1[C@H]2C[C@H]3c4[nH]c5ccccc5c4CCN3C[C@@H]2CC[C@@H]1O [Yohimbinic acid monohydrate],neuronal differentiation score,ReNCell VM [1]; library: Phytochemical,inactive: 0
same,dopaminergic neuron differentiation score,ReNCell VM [2]; library: Phytochemical,inactive: 0
CC(C)=CCC1=C(O)C(=O)c2ccccc2C1=O [2-hydroxy-3-prenylnaphthoquinone],neuronal differentiation score,ReNCell VM [1]; library: Natural,inactive: 0
same,dopaminergic neuron differentiation score,ReNCell VM [2]; library: Natural,inactive: 0
c1ccc(C(NCCNC(c2ccccc2)c2ccccc2)c2ccccc2)cc1,neuronal differentiation score,ReNCell VM [1]; library: LOPAC,inactive: 0
same,dopaminergic neuron differentiation score,ReNCell VM [2]; library: LOPAC,inactive: 0
